Assay results taken from patent publication US7498300B2 (The Salk Institute for Biological Studies, priority 2001, dated 2009).

Test: general procedure: Boc solid-phase peptide synthesis; MBHA resin (about 0.28 mequiv/g); BOP (cyclization)
Conditions: whole synthesis, capillary zone electrophoresis (CZE), scale of the general procedure about 3 grams of resin

Substance: (cyclo 31-34)[Ac-Pro^4, D-Phe^12, Nle^21,38, Glu^31, Lys^34]-r/hCRF(4-41)
- final purity (method not given): about 98%
